Source: PubChem BioAssay AID651702 (NMMLSC, 2012)
Hit rate of the full screen: of about 360,000 compounds, about 2,400 (0.67%) were called active. This list was built around the results that the source calls inconclusive (neither active nor inactive); the mix of calls is not that of the screen.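 The calls were made as follows: active = inhibition above about 55% (limit read from the data); inconclusive = no clear call, values can overlap the other calls; inactive = the rest.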

Assay: LAMP-1 surface exposure blockers, TALL-104 cells – cell-based, flow cytometry, MLPCN library, primary screen (AID 651702)
Details: TALL-104 LAMP-1 surface exposure; inhibition: at 10 µM, active compounds read high; outcome: cells stimulated with thapsigargin and PMA
For `CN1CCC(O)(c2cccs2)C(C(=O)c2cccs2)C1` (stereo not given), the inhibition was active: 75.1%. For `CCOC(=O)c1c(-n2c(C)cc(C=C3C(=O)NC(=O)NC3=O)c2C)sc2c1CCCC2`, the inhibition was inactive: 2.7%. For `COc1ccc2ccc(O)c(CN3CC=C(c4ccccc4)CC3)c2c1`, the inhibition was active: 91.7%. In the case of `O=C(/C=C/c1ccc(Cl)cc1)NC(=S)N1C[C@H]2C[C@H](C1)c1cccc(=O)n1C2`, the inhibition is reported as “inconclusive”. With `COc1cc(C=C2C(=O)NC(=O)NC2=O)ccc1OS(=O)(=O)c1ccccc1[N+](=O)[O-]` the inhibition was “inconclusive”. With `COC(=O)C1=C(c2ccc(OCc3ccccc3)cc2)C[C@@H]2CC[C@H]1N2C` the inhibition was inactive: 2.7%. In the case of `Cc1ccsc1C(=O)C1CCCN(Cc2cccc(-n3cccn3)c2)C1` (stereo not given), the inhibition is reported as “inconclusive”. With `CCOc1ccc(Br)c(C2(O)CC(C)N(C)CC2C)c1` (stereo not given) the inhibition was “inconclusive”. With `CN1CCc2cc(O)cc3c2[C@H]1Cc1ccc(O)c(O)c1-3` the inhibition was active: 60%. For `C[n+]1ccc(-c2ccncc2)cc1`, the inhibition was “inconclusive”. In the case of `O=C1/C(=C/c2ccc([N+](=O)[O-])cc2)N2CCC1CC2`, the inhibition is reported as “inconclusive”. In the case of `COc1c(C)cc(C(=O)C2CCCN(Cc3ccccn3)C2)cc1C` (stereo not given), the inhibition is reported as “inconclusive”. With `Cc1ccc(NP(=O)(Nc2ccc(C)cc2)Oc2ccccc2)cc1` the inhibition was inactive: -0.8%. For `CCc1c(C)nc(N)nc1N1N=C1SCCOc1ccccc1`, the inhibition was “inconclusive”. For `O=c1[nH]c(=S)n(Cc2ccc(F)cc2)c(O)c1/C=N/N1CCCCCC1`, the inhibition was inactive: -1%. With `COC(=O)C1=C(c2ccccc2OCc2ccccc2)C[C@@H]2CC[C@H]1N2C(=O)NCCOc1ccccc1` the inhibition was inactive: 21.5%. In the case of `CC(C)CCNC(=O)c1c(N)n(CC2CCCO2)c2nc3ccccc3nc12` (stereo not given), the inhibition is reported as inactive: 1.9%. For `CN1C2CCC1/C(=C/c1ccccn1)C(=O)/C2=C\c1ccccn1`, the inhibition was active: 64.5%. For `CCC(C)C(=O)N[C@@H](c1ccccc1)[C@@H](O)C(=O)O[C@H]1C[C@@]2(O)[C@@H](OC(=O)c3ccccc3)C3[C@](C)(C(=O)[C@H](OC(C)=O)C(=C1C)C2(C)C)[C@@H](O)C[C@H]1OC[C@@]31OC(C)=O` (stereo not given in full), the inhibition was “inconclusive”. With `CC1=C(O)C(=O)C=C2C1=CC=C1C2(C)CCC2(C)C3CC(C)(C(=O)O)CCC3(C)CCC12C` (stereo not given) the inhibition was active: 106%. For `CCCCNC(=O)NC(C(N)=O)P(=O)(OCC)OCC` (stereo not given), the inhibition was “inconclusive”. With `C[C@@H]1O[C@@H](O[C@H]2C[C@@H](O)[C@]3(CO)[C@H]4[C@H](O)C[C@]5(C)[C@@H](C6=CC(=O)OC6)CC[C@]5(O)[C@@H]4CC[C@]3(O)C2)[C@H](O)[C@H](O)[C@H]1O` the inhibition was inactive: 2.8%. In the case of `CCOC(=O)[C@]12Cc3cc(C)ccc3[C@H]1N(C1CCCCC1)C(=O)c1ccccc12`, the inhibition is reported as active: 60.2%. For `C=C1N2CCC(CC2)C1(O)c1ccccc1C` (stereo not given), the inhibition was “inconclusive”. With `CCOC(=O)[C@]12Cc3cc(OC)ccc3[C@H]1N(C1CCCCC1)C(=O)c1ccccc12` the inhibition was active: 66.9%.
